Reference: PubChem BioAssay AID1053209 (Peter MacCallum Cancer Centre, 2014)

Assay: 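Knock-downs that sensitise mouse osteosarcoma cells to doxorubicin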 (follow-up of hits)
System: mouse primary osteosarcoma cells
Reagents: single siRNA against mouse genes, 25 nM (text also states 40 nM)
Timing: about 120 h (48 h before drug, then 72 h with drug)
Treatment: doxorubicin 100 nM (about IC30-40), added 48 h after transfection, for 72 h
Read-out: 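Viability measured by ATP luminescence with and without doxorubicin, each replicate scaled to non-targeting siRNA NT1, averaged over two replicates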
Direction: viability with doxorubicin, vs NT1: higher = more viable cells under doxorubicin; viability ratio, doxorubicin over no drug: higher = less sensitisation to doxorubicin; viability without drug, vs NT1: higher = more viable cells without drug
Rule for the call: 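Counted as active (class LC dox) if viability falls to 0.7 of NT1 or below under doxorubicin but stays within 0.7 to 1.1 without drug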
The whole screen tested about 1,580 reagents; below is an unselected part. Over the whole deposit, 207 (13%) were called active. 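Rows are single siRNAs; four siRNAs per gene were tested, a gene counting as confirmed only when at least two agree.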 Entries without a mark were called inactive. The numbers tell different reagents against one gene apart.

no.	gene knocked down	reagent no.	combined effect class	viability with doxorubicin, vs NT1	viability ratio, doxorubicin over no drug	viability without drug, vs NT1
1	Psmb1 (proteasome (prosome, macropain) subunit, beta type 1)	1	low viability with and without drug	0.52	0.96	0.54
2	Psmb1 (proteasome (prosome, macropain) subunit, beta type 1)	2	low viability with and without drug	0.42	0.7	0.6
3	Psmb1 (proteasome (prosome, macropain) subunit, beta type 1)	3	low viability with and without drug	0.14	0.54	0.26
4	Psmb1 (proteasome (prosome, macropain) subunit, beta type 1)	4	low viability with and without drug	0.08	0.36	0.22
5	Sars1 (seryl-tRNA synthetase 1)	1	low viability only with doxorubicin; normal without drug (active)	0.69	0.95	0.73
6	Sars1 (seryl-tRNA synthetase 1)	2	normal viability with and without drug	1	0.97	1.03
7	Sars1 (seryl-tRNA synthetase 1)	3	low viability with and without drug	0.53	0.9	0.59
8	Sars1 (seryl-tRNA synthetase 1)	4	high viability only with doxorubicin	1.14	1.08	1.06
9	Rps18 (ribosomal protein S18)	1	low viability with and without drug	0.15	1.07	0.14
10	Rps18 (ribosomal protein S18)	2	low viability with and without drug	0.25	0.78	0.32
11	Rps18 (ribosomal protein S18)	3	low viability only with doxorubicin; normal without drug (active)	0.58	0.76	0.76
12	Rps18 (ribosomal protein S18)	4	low viability with and without drug	0.21	0.68	0.31
13	Bcl2a1d (B cell leukemia/lymphoma 2 related protein A1d)	1	normal viability with and without drug	0.92	0.93	0.99
14	Bcl2a1d (B cell leukemia/lymphoma 2 related protein A1d)	2	normal viability with and without drug	0.99	0.96	1.03
15	Bcl2a1d (B cell leukemia/lymphoma 2 related protein A1d)	3	normal viability with and without drug	1.02	1.03	0.99
16	Bcl2a1d (B cell leukemia/lymphoma 2 related protein A1d)	4	normal viability with and without drug	1.08	1.13	0.96
17	Copb2 (COPI coat complex subunit beta 2)	1	low viability with and without drug	0.37	0.64	0.58
18	Copb2 (COPI coat complex subunit beta 2)	2	low viability with and without drug	0.08	0.36	0.22
19	Copb2 (COPI coat complex subunit beta 2)	3	low viability with and without drug	0.48	0.74	0.65
20	Copb2 (COPI coat complex subunit beta 2)	4	normal viability with and without drug	0.95	1.03	0.92
21	Polr2h (polymerase (RNA) II (DNA directed) polypeptide H)	1	low viability with and without drug	0.22	0.4	0.55
22	Polr2h (polymerase (RNA) II (DNA directed) polypeptide H)	2	normal viability with and without drug	0.76	0.81	0.94
23	Polr2h (polymerase (RNA) II (DNA directed) polypeptide H)	3	low viability only with doxorubicin; normal without drug (active)	0.52	0.7	0.74
24	Polr2h (polymerase (RNA) II (DNA directed) polypeptide H)	4	normal viability with and without drug	0.98	0.99	0.99
